The results in this text go back to publication doi:10.1101/2021.11.17.468975.

The chains behind the UniProt entries cited, without tags or fusion partners.
UniProt P07260: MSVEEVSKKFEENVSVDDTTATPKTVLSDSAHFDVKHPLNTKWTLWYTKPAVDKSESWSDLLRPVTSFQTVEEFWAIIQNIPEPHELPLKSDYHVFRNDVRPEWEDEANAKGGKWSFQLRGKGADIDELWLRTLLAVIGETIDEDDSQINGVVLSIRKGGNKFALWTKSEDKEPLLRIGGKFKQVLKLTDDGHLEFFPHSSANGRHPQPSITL

These are yes or no findings as the source states them, for the method shown. In cells and extracts the contact can be indirect. A yes stands for co-enrichment or nearness to the bait. Other partners may have been found. For part of these data: No binding means not detected with the bait. Tags and fused reporters may be left off the sequences shown.

For assay [1], the target named is T1, Otu2-FTpA (FLAG-TEV-proteinA) (S. cerevisiae) (UniProt P38747).
T1 sequence: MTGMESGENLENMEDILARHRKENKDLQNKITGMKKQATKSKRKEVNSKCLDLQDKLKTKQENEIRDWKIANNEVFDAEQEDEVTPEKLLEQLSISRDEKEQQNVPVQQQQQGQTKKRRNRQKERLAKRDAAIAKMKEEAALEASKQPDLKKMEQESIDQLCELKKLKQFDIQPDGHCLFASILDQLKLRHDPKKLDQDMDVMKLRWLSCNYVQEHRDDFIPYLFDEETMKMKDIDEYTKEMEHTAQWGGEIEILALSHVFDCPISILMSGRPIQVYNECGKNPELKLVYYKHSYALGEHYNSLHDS
Nature of the assay: affinity purification with mass spectrometry.

Assay [2] deals with T2, Ubp3-FTpA (FLAG-TEV-proteinA) (S. cerevisiae) (UniProt Q01477).
T2 sequence: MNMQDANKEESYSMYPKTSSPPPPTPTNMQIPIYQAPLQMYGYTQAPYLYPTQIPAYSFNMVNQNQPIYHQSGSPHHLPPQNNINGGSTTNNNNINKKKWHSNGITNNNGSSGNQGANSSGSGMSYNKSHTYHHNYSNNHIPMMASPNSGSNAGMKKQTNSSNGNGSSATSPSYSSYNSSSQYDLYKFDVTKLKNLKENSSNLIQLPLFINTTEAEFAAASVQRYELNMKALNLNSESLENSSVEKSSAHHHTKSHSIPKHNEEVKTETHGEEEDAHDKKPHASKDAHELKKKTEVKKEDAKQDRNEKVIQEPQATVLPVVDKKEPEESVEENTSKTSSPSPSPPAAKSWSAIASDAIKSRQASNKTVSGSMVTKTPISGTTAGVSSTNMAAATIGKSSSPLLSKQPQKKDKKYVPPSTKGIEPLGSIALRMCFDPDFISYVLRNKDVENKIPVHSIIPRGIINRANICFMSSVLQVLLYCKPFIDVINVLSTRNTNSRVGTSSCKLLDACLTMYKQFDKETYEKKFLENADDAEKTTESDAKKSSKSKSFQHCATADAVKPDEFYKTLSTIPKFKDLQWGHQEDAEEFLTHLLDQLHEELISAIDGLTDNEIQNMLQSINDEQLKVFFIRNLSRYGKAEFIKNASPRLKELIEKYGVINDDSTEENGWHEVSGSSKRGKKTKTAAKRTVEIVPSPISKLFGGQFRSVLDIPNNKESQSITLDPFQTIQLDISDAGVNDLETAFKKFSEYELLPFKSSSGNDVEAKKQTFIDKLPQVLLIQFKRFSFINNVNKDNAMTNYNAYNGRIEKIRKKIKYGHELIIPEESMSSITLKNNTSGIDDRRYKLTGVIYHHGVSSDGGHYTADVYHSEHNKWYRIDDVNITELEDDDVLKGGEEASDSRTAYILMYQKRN
Briefly: affinity purification with mass spectrometry.

eIF4E (from UniProt P07260 1-213): in assay [1], the binding result was “no binding”.

B1: eIF4A (protein, UniProt P10081 1-395)
chain: MSEGITDIEESQIQTNYDKVVYKFDDMELDENLLRGVFGYGFEEPSAIQQRAIMPIIEGHDVLAQAQSGTGKTGTFSIAALQRIDTSVKAPQALMLAPTRELALQIQKVVMALAFHMDIKVHACIGGTSFVEDAEGLRDAQIVVGTPGRVFDNIQRRRFRTDKIKMFILDEADEMLSSGFKEQIYQIFTLLPPTTQVVLLSATMPNDVLEVTTKFMRNPVRILVKKDELTLEGIKQFYVNVEEEEYKYECLTDLYDSISVTQAVIFCNTRRKVEELTTKLRNDKFTVSAIYSDLPQQERDTIMKEFRSGSSRILISTDLLARGIDVQQVSLVINYDLPANKENYIHRIGRGGRFGRKGVAINFVTNEDVGAMRELEKFYSTQIEELPSDIATLLN
For the molecule B1, in assay [1], the binding result is “no binding”.

B2: Bre5 (protein, UniProt P53741 1-515)
chain: MGVTVQDICFAFLQNYYERMRTDPSKLAYFYASTAELTHTNYQSKSTNEKDDVLPTVKVTGRENINKFFSRNDAKVRSLKLKLDTIDFQYTGHLHKSILIMATGEMFWTGTPVYKFCQTFILLPSSNGSTFDITNDIIRFISNSFKPYVLTDASLSQSNEENSVSAVEEDKIRHESGVEKEKEKEKSPEISKPKAKKETVKDTTAPTESSTQEKPIVDHSQPRAIPVTKESKIHTETVPSSTKGNHKQDEVSTEELGNVTKLNEKSHKAEKKAAPIKTKEGSVEAINAVNNSSLPNGKEVSDEKPVPGGVKEAETEIKPIEPQVSDAKESGNNASTPSSSPEPVANPPKMTWASKLMNENSDRISKNNTTVEYIRPETLPKKPTERKFEMGNRRDNASANSKNKKKPVFSTVNKDGFYPIYIRGTNGLREEKLRSALEKEFGKVMRITAADNFAVVDFETQKSQIDALEKKKKSIDGIEVCLERKTVKKPTSNNPPGIFTNGTRSHRKQPLKRKD
With B2, in assay [2], the binding entry is reported as “binds”.
